# Measurements reported in paper doi:10.1101/2020.03.23.004119.
# Protein sequences, listed by entry. Tags and fused reporters are not part of them.
# UniProt Q16877, whole entry: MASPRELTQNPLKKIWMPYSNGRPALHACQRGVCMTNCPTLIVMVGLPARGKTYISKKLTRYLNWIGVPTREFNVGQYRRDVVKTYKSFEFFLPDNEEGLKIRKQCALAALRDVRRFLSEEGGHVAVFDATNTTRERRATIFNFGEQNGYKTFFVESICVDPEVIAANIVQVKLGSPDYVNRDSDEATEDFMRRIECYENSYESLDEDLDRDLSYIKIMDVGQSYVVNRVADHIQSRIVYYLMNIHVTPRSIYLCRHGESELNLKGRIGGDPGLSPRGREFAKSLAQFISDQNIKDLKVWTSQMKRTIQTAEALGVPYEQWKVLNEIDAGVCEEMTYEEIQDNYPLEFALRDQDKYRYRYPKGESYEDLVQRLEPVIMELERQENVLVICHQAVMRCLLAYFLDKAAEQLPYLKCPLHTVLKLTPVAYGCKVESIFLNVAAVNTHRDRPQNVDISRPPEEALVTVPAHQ
# UniProt O60725, whole entry: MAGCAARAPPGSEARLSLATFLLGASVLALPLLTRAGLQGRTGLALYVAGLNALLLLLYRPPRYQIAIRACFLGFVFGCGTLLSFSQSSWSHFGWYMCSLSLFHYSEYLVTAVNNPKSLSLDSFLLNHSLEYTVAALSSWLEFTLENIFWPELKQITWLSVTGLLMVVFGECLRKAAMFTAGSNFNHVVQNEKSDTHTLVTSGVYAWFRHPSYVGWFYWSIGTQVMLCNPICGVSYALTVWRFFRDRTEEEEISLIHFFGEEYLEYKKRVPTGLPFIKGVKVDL
# These are yes or no findings as the source states them, for the method shown. For some assays here: Binding seen in cells or lysates may run through a third protein. Some binding calls cover weakened binding; strength is not graded here.
# Columns and labels:
# [1] = biological target: FLAG-tagged human PFKFB4 (human) (UniProt Q16877); assay: co-IP
# [2] = biological target: hPFKFB4 mammalian two-hybrid fusion (pBind-PFKFB4 and pAct-PFKFB4) (human) (UniProt Q16877); assay: two-hybrid
binding [1],binding [2],Substance
binds,–,ICMT tagged with V5 (from UniProt O60725 1-284) (enzyme)
–,binds,hICMT fused to VP16 activation domain (pAct-ICMT) (from UniProt O60725 1-284) (enzyme)
